Values quoted from earlier work as cited in paper PMC7343282, “Tissue Distribution of Several Series of Cationic Surfactants in Rainbow Trout (Oncorhynchus mykiss) Following Exposure via Water” (Environmental Science & Technology, 2020).

Tested on: tadpoles
Conditions: 24 h exposure via water; cited from earlier work

## CCCCCCCCCCCCCCCC[n+]1ccccc1.[Br-] [hexadecylpyridinium bromide]
  concentrations in liver, kidney, and fat body, times lower than the concentration in gills: 30–100
